Laboratory results: PubChem BioAssay AID652259 (Drosophila RNAi Screening Center, 2013)
Assay: 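Genome-wide hunt for genes that control Wingless pathway activity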 (primary screen). Cells: Drosophila clone 8 imaginal disc epithelial cells. Reagents: long dsRNA against Drosophila genes. Challenge: pathway stimulated by co-transfected Wingless expression plasmid. Read-out: 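Firefly luciferase from a tcf-site Wingless reporter, measured alongside co-transfected Renilla luciferase that tracks transfection; pathway stimulated by a Wingless plasmid; the firefly-to-Renilla ratio is not deposited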. Direction: firefly reporter light: higher = more Wg reporter light, before normalisation; Renilla control light: higher = more transfected or surviving cells. Rule for the call: 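Strong candidates differ from their plate mean by at least two out of four per-plate statistical tests; weak candidates meet just one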. Calls: active = candidate regulator (raises or lowers reporter); inactive = not a candidate.
The screen tested about 22,000 reagents; this is a random part of those with a known target gene and a result. In the full data, 233 (1.1%) were called active. 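Light values are raw, unnormalised plate reads; the ratio scores behind the reporter calls were not deposited.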 Entries without a mark were called inactive. A plus sign joins genes that one reagent is predicted to hit. Not stated in the record: the amount of reagent, the time to read-out, the dose of the treatment.

| target | PubChem SID | reporter change call, replicate 1 | firefly reporter light, replicate 1 | firefly reporter light, replicate 2 | Renilla control light, replicate 1 | Renilla control light, replicate 2 |
| --- | --- | --- | --- | --- | --- | --- |
| Prp39 (pre-mRNA processing factor 39) | SID104194925 | – | 4337 | 12295 | 995 | 2009 |
| Or23a (Odorant receptor 23a) | SID104180559 | – | 2016 | 6097 | 1097 | 2524 |
| Nthl1 (Nth-like DNA glycosylase 1) | SID104182975 | – | 2384 | 6066 | 920 | 2439 |
| mRpS17 (mitochondrial ribosomal protein S17) | SID104184255 | – | 2608 | 4490 | 496 | 2332 |
| MtnA (Metallothionein A) | SID104201295 | – | 7.13e5 | 6.50e5 | 3.66e5 | 2.39e5 |
| ttk (tramtrack) | SID104193870 | – | 3783 | – | 1248 | – |
| ttk (tramtrack) | SID104196883 | – | 9485 | – | 8528 | – |
| CG6961 + CG18259 | SID104199591 | – | 19107 | – | 11098 | – |
| CG6961 + CG18259 | SID104199811 | – | 2898 | 6024 | 1192 | 2394 |
| PGRP-SA (Peptidoglycan recognition protein SA) | SID104199212 | – | 23850 | – | 8422 | – |
| Raf (Raf oncogene) | SID104198613 | – | 13963 | – | 11591 | – |
| ChT (Choline transporter) | SID104196088 | – | 1785 | 5049 | 1091 | 743 |
| Vdup1 (Vitamin D[[3]] up-regulated protein 1) | SID104188378 | – | 6138 | – | 2729 | – |
| Kal1 (Kallmann syndrome 1) | SID104195775 | – | 1120 | 4695 | 752 | 1298 |
| qkr58E-2 (quaking related 58E-2) | SID104184502 | – | 1936 | 5383 | 380 | 2809 |
| CG15461 | SID104200324 | – | 19995 | – | 8744 | – |
| SmydA-7 (SET and MYND domain containing, arthropod-specific, member 7) | SID104187132 | – | 13281 | – | 3803 | – |
| CG32181 | SID104202043 | – | 7.93e5 | 7.56e5 | 3.50e5 | 1.01e5 |
| Sodh2 (Sorbitol dehydrogenase 2) | SID104196657 | – | 22932 | – | 6717 | – |
| frac (faulty attraction) | SID104190659 | – | 3308 | – | 976 | – |
| CG7332 | SID104199830 | – | 3168 | 7324 | 1101 | 2140 |
| CG7367 | SID104182841 | – | 1773 | 6216 | 823 | 3446 |
| ovm + CG31975 | SID104201697 | – | 4.79e5 | 5.51e5 | 1.91e5 | 2.12e5 |
| Drgx (Dorsal root ganglia homeobox) | SID104180070 | – | 2748 | 6135 | 1062 | 2344 |
| Drgx (Dorsal root ganglia homeobox) | SID104180329 | – | 2780 | 8377 | 892 | 3029 |
| sav (salvador) | SID104194473 | – | 17556 | – | 16410 | – |
| sav (salvador) | SID104194474 | – | 15691 | – | 12960 | – |
| CG43133 | SID104199023 | – | 3632 | – | 1069 | – |
| Grip (Glutamate receptor interacting protein) | SID104197732 | – | 32048 | – | 2752 | – |
| Grip (Glutamate receptor interacting protein) | SID104198187 | – | 23712 | – | 8388 | – |
| unc-119 | SID104198638 | – | 15632 | – | 6652 | – |
| Zwilch | SID104195168 | – | 7635 | – | 2979 | – |
| fabp + sea | SID104195906 | – | 4038 | – | 1751 | – |
| fabp + sea | SID104195907 | – | 11704 | – | 2840 | – |
| asRNA:CR43426 (antisense RNA:CR43426) | SID104191379 | – | 2576 | – | 1041 | – |
| chinmo (Chronologically inappropriate morphogenesis) | SID104180084 | – | 20544 | – | 7872 | – |
| chinmo (Chronologically inappropriate morphogenesis) | SID104180277 | – | 7739 | 13474 | 1616 | 3351 |
| chinmo (Chronologically inappropriate morphogenesis) | SID104180301 | – | 3911 | 12152 | 775 | 1932 |
| chinmo (Chronologically inappropriate morphogenesis) | SID104201887 | – | 6.42e5 | 6.85e5 | 1.37e5 | 97862 |
| CG9609 | SID104199991 | – | 2520 | 6086 | 1113 | 2112 |
| CG3078 | SID104198323 | – | 2503 | 3147 | 1099 | 1376 |
| Ras64B (Ras oncogene at 64B) | SID104188481 | – | 9184 | – | 2993 | – |
| CG14074 | SID104189871 | – | 5170 | – | 2214 | – |
| Cdc6 (Cell division cycle 6) | SID104190355 | – | 1965 | – | 1538 | – |
| UbcE2H (Ubiquitin conjugating enzyme E2H) | SID104198013 | – | 3303 | 7197 | 1140 | 1301 |
| CG13501 | SID104183938 | – | 2235 | 5221 | 624 | 1860 |
| Vav (Vav guanine nucleotide exchange factor) | SID104200176 | – | 24716 | – | 10232 | – |
| Abl (Abl tyrosine kinase) | SID104189453 | – | 8652 | – | 3328 | – |
| Pdk (Pyruvate dehydrogenase kinase) | SID104187296 | – | 7216 | – | 2177 | – |
| CG3517 | SID104195284 | – | 12684 | – | 2592 | – |
| srw (shrew) | SID104187993 | – | 4763 | – | 1869 | – |
| CG11396 | SID104191446 | – | 18451 | – | 6368 | – |
| pita | SID104183798 | – | 16472 | – | 6416 | – |
| pita | SID104184227 | – | 12512 | – | 2725 | – |
| CG4849 | SID104195454 | – | 1915 | 6464 | 451 | 727 |
| Grip84 (Gamma-tubulin ring protein 84) | SID104200040 | – | 1994 | 4343 | 583 | 1003 |
| Uba2 (Ubiquitin-like activating enzyme 2) | SID104191103 | Wg reporter activity raised (active) | 7920 | 25259 | 1524 | 4600 |
| CG11227 | SID104200268 | – | 17505 | – | 10709 | – |
| Gpxl (Glutathione peroxidase-like) | SID104186330 | – | 7581 | – | 2401 | – |
| Cpr56F (Cuticular protein 56F) | SID104187118 | – | 7340 | – | 2353 | – |
| Txl (Thioredoxin-like) | SID104191102 | – | 1990 | 7728 | 1305 | 2314 |
| CG12964 | SID104186058 | Wg reporter activity raised | 8192 | 8.49e5 | 1686 | 4.01e5 |
| dnc (dunce) | SID104197550 | – | 18235 | – | 7296 | – |
| dnc (dunce) | SID104197551 | – | 18028 | – | 9931 | – |
| dnc (dunce) | SID104197703 | – | 15293 | – | 11079 | – |
| dnc (dunce) | SID104198555 | – | 26650 | – | 18322 | – |
| dnc (dunce) | SID104198556 | – | 20739 | – | 16900 | – |
| Ir94f (Ionotropic receptor 94f) | SID104193413 | – | 2356 | – | 1258 | – |
| Atac1 (Ada2a-containing complex component 1) | SID104182947 | – | 2836 | 6410 | 1292 | 2501 |
| CG6878 | SID104190529 | – | 5099 | – | 2138 | – |
| BicD (Bicaudal D) | SID104181798 | – | 11463 | – | 4204 | – |
| CG12105 | SID104188047 | – | 12004 | – | 3316 | – |
| CG11474 | SID104183904 | – | 18275 | – | 6109 | – |

In a second layout: 10 of the entries above
target,PubChem SID,"reporter change call, replicate 1","firefly reporter light, replicate 1","firefly reporter light, replicate 2","Renilla control light, replicate 1","Renilla control light, replicate 2"
CG15461,SID104200324,,19995,,8744,
"SmydA-7 (SET and MYND domain containing, arthropod-specific, member 7)",SID104187132,,13281,,3803,
CG32181,SID104202043,,7.93e5,7.56e5,3.50e5,1.01e5
Sodh2 (Sorbitol dehydrogenase 2),SID104196657,,22932,,6717,
frac (faulty attraction),SID104190659,,3308,,976,
CG7332,SID104199830,,3168,7324,1101,2140
CG7367,SID104182841,,1773,6216,823,3446
ovm + CG31975,SID104201697,,4.79e5,5.51e5,1.91e5,2.12e5
Drgx (Dorsal root ganglia homeobox),SID104180070,,2748,6135,1062,2344
Drgx (Dorsal root ganglia homeobox),SID104180329,,2780,8377,892,3029
